# Test results published in the M2OR odorant receptor database.
# Sequences of proteins named here, by UniProt entry; tags and fusion partners are left off. A change or cut given only in a name is not applied to a line headed by its entry.
# UniProt Q96RD3: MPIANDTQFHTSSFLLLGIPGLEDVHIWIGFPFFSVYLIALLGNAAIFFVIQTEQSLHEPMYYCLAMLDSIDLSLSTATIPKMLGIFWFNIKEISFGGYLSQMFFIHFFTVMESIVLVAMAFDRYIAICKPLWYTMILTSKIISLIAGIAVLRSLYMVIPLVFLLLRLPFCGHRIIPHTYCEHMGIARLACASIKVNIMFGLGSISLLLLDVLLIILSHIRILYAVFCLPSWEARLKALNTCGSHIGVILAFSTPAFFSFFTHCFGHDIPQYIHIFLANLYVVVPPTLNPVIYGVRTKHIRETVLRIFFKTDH
# Only a part is listed here, and it is no random draw. The calls were merged from several studies; some rest on single wells. The list shows a part of the results. The list shows a part of the results.
# How the values were obtained:
# Conditions in all cases: stereoisomer not certain
# [1] = target: T1, OR51I2 (Homo sapiens) (UniProt Q9H344)
# T1 sequence (whole entry): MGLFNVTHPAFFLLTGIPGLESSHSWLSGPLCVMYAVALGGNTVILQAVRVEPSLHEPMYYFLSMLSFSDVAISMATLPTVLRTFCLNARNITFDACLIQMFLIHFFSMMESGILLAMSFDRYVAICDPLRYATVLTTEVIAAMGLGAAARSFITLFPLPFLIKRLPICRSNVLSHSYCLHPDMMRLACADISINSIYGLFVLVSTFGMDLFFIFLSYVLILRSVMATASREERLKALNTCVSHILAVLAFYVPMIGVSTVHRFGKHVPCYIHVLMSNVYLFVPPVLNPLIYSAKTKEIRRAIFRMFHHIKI
# Method in brief: (§1)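 Each receptor–molecule pair is labelled responsive or non-responsive (inactive) according to whether the original authors judged the measured signal statistically different from baseline. The data were taken from the main text and supplementary material of published papers and checked for typos and inconsistencies. Assay methods differed by source, with transient luciferase assays in mammalian cell lines being common.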
# [2] = target: T2, OR51L1 (Homo sapiens) (UniProt Q8NGJ5)
# T2 sequence (whole entry): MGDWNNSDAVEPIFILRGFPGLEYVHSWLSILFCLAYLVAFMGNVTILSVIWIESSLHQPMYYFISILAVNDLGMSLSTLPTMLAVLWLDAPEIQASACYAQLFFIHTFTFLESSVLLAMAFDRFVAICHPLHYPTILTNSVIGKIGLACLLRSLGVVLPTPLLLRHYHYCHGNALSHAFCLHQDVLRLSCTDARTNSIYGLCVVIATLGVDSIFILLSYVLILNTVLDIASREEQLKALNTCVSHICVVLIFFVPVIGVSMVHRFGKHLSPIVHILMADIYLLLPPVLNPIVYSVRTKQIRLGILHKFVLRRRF
# Method in brief: as §1
# [3] = target: T3, OR51S1 (Homo sapiens) (UniProt Q8NGJ8)
# T3 sequence (whole entry): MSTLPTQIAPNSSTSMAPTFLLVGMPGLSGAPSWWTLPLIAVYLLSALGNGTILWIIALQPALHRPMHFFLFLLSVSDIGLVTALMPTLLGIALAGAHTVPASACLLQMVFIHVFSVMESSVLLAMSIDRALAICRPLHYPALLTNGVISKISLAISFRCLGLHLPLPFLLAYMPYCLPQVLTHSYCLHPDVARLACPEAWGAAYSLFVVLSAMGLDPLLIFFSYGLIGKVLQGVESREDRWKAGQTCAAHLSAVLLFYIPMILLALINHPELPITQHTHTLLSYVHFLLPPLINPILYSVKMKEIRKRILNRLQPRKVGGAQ
# Method in brief: as §1
# [4] = target: T4, OR52A4P (Homo sapiens) (UniProt A6NMU1)
# T4 sequence (whole entry): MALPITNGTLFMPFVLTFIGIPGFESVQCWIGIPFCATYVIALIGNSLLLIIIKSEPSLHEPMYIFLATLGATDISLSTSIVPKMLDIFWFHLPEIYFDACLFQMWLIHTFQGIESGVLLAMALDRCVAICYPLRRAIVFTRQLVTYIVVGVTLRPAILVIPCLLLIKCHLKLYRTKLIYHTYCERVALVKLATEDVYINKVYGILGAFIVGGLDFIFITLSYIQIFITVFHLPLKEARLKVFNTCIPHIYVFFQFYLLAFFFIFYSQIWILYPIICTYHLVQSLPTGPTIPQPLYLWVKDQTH
# Method in brief: as §1
# [5] = target: T5, OR52A5 (Homo sapiens) (UniProt Q9H2C5)
# T5 sequence (whole entry): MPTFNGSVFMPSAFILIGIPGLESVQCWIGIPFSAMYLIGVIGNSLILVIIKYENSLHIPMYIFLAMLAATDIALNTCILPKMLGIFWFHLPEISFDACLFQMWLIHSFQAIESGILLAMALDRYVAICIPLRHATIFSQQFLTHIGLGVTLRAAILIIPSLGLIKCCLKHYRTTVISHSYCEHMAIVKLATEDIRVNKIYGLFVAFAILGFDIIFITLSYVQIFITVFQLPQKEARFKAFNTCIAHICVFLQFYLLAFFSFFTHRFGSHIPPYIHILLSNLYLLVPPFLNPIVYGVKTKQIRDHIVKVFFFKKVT
# Method in brief: as §1
# [6] = target: T6, OR52B4 (Homo sapiens) (UniProt Q8NGK2)
# T6 sequence (whole entry): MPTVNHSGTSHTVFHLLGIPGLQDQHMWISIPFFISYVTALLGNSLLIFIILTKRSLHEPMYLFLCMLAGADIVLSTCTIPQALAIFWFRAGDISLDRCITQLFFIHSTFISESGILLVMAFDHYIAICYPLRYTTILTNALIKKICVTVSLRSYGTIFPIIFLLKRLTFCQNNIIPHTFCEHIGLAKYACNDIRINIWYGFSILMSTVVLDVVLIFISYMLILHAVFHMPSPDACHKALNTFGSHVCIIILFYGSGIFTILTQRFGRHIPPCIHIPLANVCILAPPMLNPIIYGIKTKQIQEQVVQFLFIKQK
# Method in brief: as §1
# [7] = target: T7, OR52D1 (Homo sapiens) (UniProt Q9H346)
# T7 sequence (whole entry): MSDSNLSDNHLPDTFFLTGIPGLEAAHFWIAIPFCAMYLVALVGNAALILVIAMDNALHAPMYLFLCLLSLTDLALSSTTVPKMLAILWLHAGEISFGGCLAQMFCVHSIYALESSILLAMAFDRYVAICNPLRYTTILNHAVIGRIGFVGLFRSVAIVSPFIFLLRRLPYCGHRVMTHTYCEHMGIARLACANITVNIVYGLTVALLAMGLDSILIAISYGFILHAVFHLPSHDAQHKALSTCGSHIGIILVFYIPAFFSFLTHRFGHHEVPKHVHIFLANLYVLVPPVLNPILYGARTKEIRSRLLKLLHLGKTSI
# Method in brief: as §1
# [8] = target: OR52E6 (Homo sapiens) (UniProt Q96RD3)
# Method in brief: as §1
# [9] = target: T8, OR52H1 (Homo sapiens) (UniProt Q8NGJ2)
# T8 sequence (whole entry): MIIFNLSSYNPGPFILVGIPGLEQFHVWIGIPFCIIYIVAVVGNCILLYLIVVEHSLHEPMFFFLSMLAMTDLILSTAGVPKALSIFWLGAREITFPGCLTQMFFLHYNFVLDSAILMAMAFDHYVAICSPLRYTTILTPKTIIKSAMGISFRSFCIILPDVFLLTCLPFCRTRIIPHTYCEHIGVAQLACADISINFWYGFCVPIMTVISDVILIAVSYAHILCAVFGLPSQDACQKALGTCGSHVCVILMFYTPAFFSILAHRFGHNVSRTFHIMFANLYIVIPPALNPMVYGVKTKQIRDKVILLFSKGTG
# Method in brief: as §1
# [10] = target: T9, OR52K1 (Homo sapiens) (UniProt Q8NGK4)
# T9 sequence (whole entry): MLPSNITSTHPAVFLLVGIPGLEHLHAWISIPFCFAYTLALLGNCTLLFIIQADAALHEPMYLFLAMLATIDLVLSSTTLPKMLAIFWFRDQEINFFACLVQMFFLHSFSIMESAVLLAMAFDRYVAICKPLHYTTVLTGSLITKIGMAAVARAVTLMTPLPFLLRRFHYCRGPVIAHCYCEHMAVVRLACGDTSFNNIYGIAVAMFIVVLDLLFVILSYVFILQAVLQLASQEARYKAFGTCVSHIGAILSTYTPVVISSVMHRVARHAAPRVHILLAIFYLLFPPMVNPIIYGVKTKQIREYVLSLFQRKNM
# Method in brief: as §1
# 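Further: active if original authors judged signal statistically different from baseline.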
structure (smiles),measurement,setting,value
CCCCOC(C)=O,odorant receptor agonist call,[1],inactive
same,odorant receptor agonist call,[2],inactive
same,odorant receptor agonist call,[3],active
same,odorant receptor agonist call,[4],inactive
same,odorant receptor agonist call,[5],inactive
same,odorant receptor agonist call,[6],inactive
same,odorant receptor agonist call,[7],inactive
same,odorant receptor agonist call,[8],inactive
same,odorant receptor agonist call,[9],inactive
same,odorant receptor agonist call,[10],inactive

# Random excerpt: two records from the list.
structure (smiles),measurement,setting,value
CCCCOC(C)=O,odorant receptor agonist call,[5],inactive
same,odorant receptor agonist call,[10],inactive
